From the supplement of paper PMC8256030
Several values for one entry are separate records, joined by “and”; a condition that tells them apart may be missing. Equal entries are not always repeated. Structures can show the parent of a compound that is named as a salt. This is one part of the list. This data set is noisy: repeats of one test often differ as much as different tests do.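 HEK293T cells were given each compound shortly before transfection with a reporter in which red mCherry is followed by the SARS-CoV-2 frameshift element and then GFP in the −1 frame, so GFP appears only after frameshifting.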

Columns and labels:
[1] = tested on: SARS-CoV-2 -1 PRF reporter mCherry-FSE-GFP(-1); experiment: mCherry (red) intensity as percent of control; higher = higher upstream reporter expression; settings: 10 µM; 24 h; HEK293T
[2] = tested on: SARS-CoV-2 -1 PRF reporter mCherry-FSE-GFP(-1); experiment: percent effect, decrease of GFP/mCherry ratio (-1 PRF reporter) relative to controls; higher = stronger frameshift inhibition; settings: 10 µM; 24 h; HEK293T

SMILES | mCherry [1] | percent effect [2]
C=C1C[C@H]2[C@@H]3C=C(C)C4=CC(=O)CC[C@]4(C)[C@H]3CC[C@]2(C)[C@@]1(OC(C)=O)C(C)=O | 99% | -18.2%
O=C(CCn1cnc2c(=O)[nH]cnc21)Nc1ccc(C(=O)O)cc1 [leteprinim] | 120% | -4.04%
Cc1cc2nc3c(=O)[nH]c(=O)nc-3n(C[C@H](O)[C@H](O)[C@H](O)COP(=O)(O)O)c2cc1C | 86.3% | -3.47%
CC(Oc1c(Cl)cccc1Cl)C1=NCCN1 (centres undefined) [Lofexidine·HCl] | 104% | -4.07%
O=C1NC(=O)C(C(=O)Nc2ccc(Cl)cc2)c2ccccc21 (centres undefined) [tesicam] | 63.4% | -6.08%
CN(C/C=C/c1ccccc1)Cc1cccc2ccccc12 | 87.2% | -3.34%
CC(O)(P(=O)(O)O)P(=O)(O)O [etidronic acid] | 106% | -6.29%
CN1CCN(C2=Nc3cc(Cl)ccc3Nc3ccccc32)CC1 [clozapine] | 113% | 2.33%
c1ccc(CCNc2nc(-c3ccccc3)cs2)cc1 [fanetizole] | 88.7% | 10.5%
CC(C)[C@H]1CC[C@H](C(=O)N[C@H](Cc2ccccc2)C(=O)O)CC1 | 90.1% | -2.18%
CC(=O)[C@@]1(O)CC[C@H]2[C@@H]3C[C@H](C)C4=CC(=O)C=C[C@]4(C)[C@@]3(F)[C@@H](O)C[C@@]21C [fluorometholone] | 118% and 109% | -4.71% and -5.3%
CN1CCC[C@H]1c1cccnc1 | 102% | -1.74%
CC1=C(/C=C/C(C)=C/C=C/C(C)=C/CO)C(C)(C)CCC1 [Vitamin A (Retinol)] | 78.4% | -8.22%
NC(=O)c1cn(Cc2c(F)cccc2F)nn1 [rufinamide] | 82.7% | -2.75%
CC(=O)Oc1ccccc1C(=O)Nc1ncc([N+](=O)[O-])s1 [nitazoxanide] | 121% | -4.38%
O=c1[nH]c2ccccc2n1C1CCN(CCCC(c2ccc(F)cc2)c2ccc(F)cc2)CC1 [pimozide] | 81.2% and 94.9% | -2.07% and -0.998%
CCCCCCCCCCCCCCCC(=O)NCCC[N+](C)(C)CC(=O)[O-] [pendecamaine] | 116% | 1.23%
C[C@@H]1C/C=C/C=C/C=C/C=C/[C@H](O[C@@H]2O[C@H](C)[C@@H](O)[C@H](N)[C@@H]2O)C[C@@H]2O[C@](O)(C[C@@H](O)C[C@H]3O[C@@H]3/C=C/C(=O)O1)C[C@H](O)[C@H]2C(=O)O [Pimaricin] | 112% | -2.12%
COC[C@@H](c1ccc(C(F)(F)F)cc1)N1CCN(C2(C)CCN(C(=O)c3c(C)ncnc3C)CC2)C[C@@H]1C [vicriviroc] | 102% | -5.01%
CCCCCOc1ccc(-c2ccc(-c3ccc(C(=O)N[C@H]4C[C@@H](O)[C@@H](O)NC(=O)[C@@H]5[C@@H](O)[C@@H](C)CN5C(=O)[C@H]([C@@H](C)O)NC(=O)[C@H]([C@H](O)[C@@H](O)c5ccc(O)cc5)NC(=O)[C@@H]5C[C@@H](O)CN5C(=O)[C@H]([C@@H](C)O)NC4=O)cc3)cc2)cc1 [Eraxis] | 21.1% | -23.2%
CSCC[C@H](NC(=O)[C@H](Cc1c[nH]c2ccccc12)NC(=O)CCNC(=O)OC(C)(C)C)C(=O)N[C@@H](CC(=O)O)C(=O)N[C@@H](Cc1ccccc1)C(N)=O | 117% | -1.62%
CC[C@H]1OC(=O)[C@H](C)[C@@H](O[C@H]2C[C@@](C)(OC)[C@@H](O)[C@H](C)O2)[C@H](C)[C@@H](O[C@@H]2O[C@H](C)C[C@H](N(C)C)[C@H]2O)[C@](C)(O)C[C@@H](C)/C(=N\OCOCCOC)[C@H](C)[C@@H](O)[C@]1(C)O [roxithromycin] | 93.6% | -2.13%
COc1ccc(Cl)cc1C(=O)NCCc1ccc(S(=O)(=O)NC(=O)NC2CCCCC2)cc1 [Glyburide] | 94.5% | -6.04%
CC[C@@]1(O)C(=O)OCc2c1cc1n(c2=O)Cc2cc3c(CN(C)C)c(O)ccc3nc2-1 | 153% | 10.4%
CCCCN(CCCC)CC(O)c1cc(Cl)cc2c1-c1ccc(Cl)cc1/C2=C/c1ccc(Cl)cc1 (centres undefined) [lumefantrine] | 108% | -7.88%
Cc1cc(C(C)(C)C)cc(C)c1CC1=NCCN1 [xylometazoline] | 96.9% | -2.71%
CCCCCCOC(=O)NC(=N)c1ccc(NCc2nc3cc(C(=O)N(CCC(=O)OCC)c4ccccn4)ccc3n2C)cc1 [dabigatran etexilate] | 96.8% | -4.3%

Among those listed so far, 2 have a tert-butyl group:
SMILES | mCherry [1] | percent effect [2]
CSCC[C@H](NC(=O)[C@H](Cc1c[nH]c2ccccc12)NC(=O)CCNC(=O)OC(C)(C)C)C(=O)N[C@@H](CC(=O)O)C(=O)N[C@@H](Cc1ccccc1)C(N)=O | 117% | -1.62%
Cc1cc(C(C)(C)C)cc(C)c1CC1=NCCN1 [xylometazoline] | 96.9% | -2.71%
